# Test results taken from the supplement of paper PMC8728848.
# This is one part of the list.
# Columns and labels:
# Assay in all cases: glycan array binding signal (z-score within array); higher = stronger binding
# Settings in all cases: glycan notation: IUPAC condensed, linker removed
# [1] = molecular target: Neu5Ac(a2-3)Gal(b1-3)]Neu5Ac(a2-3)Gal(b1-4)]GlcNAc
# Procedure, shortened: (§1)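 The binding signal is a Z-score computed within each array. Data were drawn from 3228 arrays in the Consortium for Functional Glycomics database, restricted to those with a known protein sequence. Scores were averaged over arrays of the same protein sequence at different concentrations or buffers, and over linkers, and negative values can be taken as non-binding.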
# [2] = molecular target: Neu5Ac(a2-3)Gal(b1-4)Glc
# Procedure, shortened: as §1
# [3] = molecular target: Neu5Ac(a2-3)Gal(b1-4)GlcNAc
# Procedure, shortened: as §1
# [4] = molecular target: Neu5Ac(a2-3)Gal(b1-4)GlcNAc(b1-2)Man
# Procedure, shortened: as §1
# [5] = molecular target: Neu5Ac(a2-3)Gal(b1-4)GlcNAc(b1-2)Man(a1-3)[GlcNAc(b1-4)][Neu5Ac(a2-3)Gal(b1-4)GlcNAc(b1-2)Man(a1-6)]Man(b1-4)GlcNAc(b1-4)GlcNAc
# Procedure, shortened: as §1
# [6] = molecular target: Neu5Ac(a2-3)Gal(b1-4)GlcNAc(b1-2)Man(a1-3)[Neu5Ac(a2-3)Gal(b1-4)GlcNAc(b1-2)Man(a1-6)]Man(b1-4)GlcNAc(b1-4)GlcNAc
# Procedure, shortened: as §1
# [7] = molecular target: Neu5Ac(a2-3)Gal(b1-4)GlcNAc(b1-2)Man(a1-3)[Neu5Ac(a2-3)Gal(b1-4)GlcNAc(b1-2)Man(a1-6)]Man(b1-4)GlcNAc(b1-4)[Fuc(a1-6)]GlcNAc
# Procedure, shortened: as §1
# [8] = molecular target: Neu5Ac(a2-3)Gal(b1-4)GlcNAc(b1-2)Man(a1-3)[Neu5Ac(a2-6)Gal(b1-4)GlcNAc(b1-2)Man(a1-6)]Man(b1-4)GlcNAc(b1-4)GlcNAc
# Procedure, shortened: as §1
# [9] = molecular target: Neu5Ac(a2-3)Gal(b1-4)GlcNAc(b1-2)[Neu5Ac(a2-3)Gal(b1-4)GlcNAc(b1-4)]Man(a1-3)[GlcNAc(b1-4)][Neu5Ac(a2-3)Gal(b1-4)GlcNAc(b1-2)[Neu5Ac(a2-3)Gal(b1-4)GlcNAc(b1-6)]Man(a1-6)]Man(b1-4)GlcNAc(b1-4)GlcNAc
# Procedure, shortened: as §1
# [10] = molecular target: Neu5Ac(a2-3)Gal(b1-4)GlcNAc(b1-2)[Neu5Ac(a2-3)Gal(b1-4)GlcNAc(b1-4)]Man(a1-3)[GlcNAc(b1-4)][Neu5Ac(a2-3)Gal(b1-4)GlcNAc(b1-4)Man(a1-6)]Man(b1-4)GlcNAc(b1-4)GlcNAc
# Procedure, shortened: as §1
# [11] = molecular target: Neu5Ac(a2-3)Gal(b1-4)GlcNAc(b1-2)[Neu5Ac(a2-3)Gal(b1-4)GlcNAc(b1-6)]Man(a1-6)[Neu5Ac(a2-3)Gal(b1-4)GlcNAc(b1-2)Man(a1-3)][GlcNAc(b1-4)]Man(b1-4)GlcNAc(b1-4)GlcNAc
# Procedure, shortened: as §1
# [12] = molecular target: Neu5Ac(a2-3)Gal(b1-4)GlcNAc(b1-3)Gal
# Procedure, shortened: as §1
# [13] = molecular target: Neu5Ac(a2-3)Gal(b1-4)GlcNAc(b1-3)Gal(b1-3)GlcNAc
# Procedure, shortened: as §1
# [14] = molecular target: Neu5Ac(a2-3)Gal(b1-4)GlcNAc(b1-3)Gal(b1-4)GlcNAc
# Procedure, shortened: as §1
# [15] = molecular target: Neu5Ac(a2-3)Gal(b1-4)GlcNAc(b1-3)Gal(b1-4)GlcNAc(b1-2)Man(a1-3)[Neu5Ac(a2-3)Gal(b1-4)GlcNAc(b1-3)Gal(b1-4)GlcNAc(b1-2)Man(a1-6)]Man(b1-4)GlcNAc(b1-4)GlcNAc
# Procedure, shortened: as §1
# [16] = molecular target: Neu5Ac(a2-3)Gal(b1-4)GlcNAc(b1-3)Gal(b1-4)GlcNAc(b1-3)Gal(b1-4)GlcNAc
# Procedure, shortened: as §1
# [17] = molecular target: Neu5Ac(a2-3)Gal(b1-4)GlcNAc(b1-3)Gal(b1-4)GlcNAc(b1-3)Gal(b1-4)GlcNAc(b1-2)Man(a1-3)[Neu5Ac(a2-3)Gal(b1-4)GlcNAc(b1-3)Gal(b1-4)GlcNAc(b1-3)Gal(b1-4)GlcNAc(b1-2)Man(a1-6)]GalNAc
# Procedure, shortened: as §1
# [18] = molecular target: Neu5Ac(a2-3)Gal(b1-4)GlcNAc(b1-3)Gal(b1-4)GlcNAc(b1-3)GalNAc
# Procedure, shortened: as §1
# [19] = molecular target: Neu5Ac(a2-3)Gal(b1-4)GlcNAc(b1-3)Gal(b1-4)GlcNAc(b1-3)[Neu5Ac(a2-3)Gal(b1-4)GlcNAc(b1-3)Gal(b1-4)GlcNAc(b1-6)]GalNAc
# Procedure, shortened: as §1
# [20] = molecular target: Neu5Ac(a2-3)Gal(b1-4)GlcNAc(b1-3)Gal(b1-4)GlcNAc(b1-6)[Gal(b1-3)]GalNAc
# Procedure, shortened: as §1
# [21] = molecular target: Neu5Ac(a2-3)Gal(b1-4)GlcNAc(b1-3)Gal(b1-4)[Fuc(a1-3)]GlcNAc
# Procedure, shortened: as §1
# [22] = molecular target: Neu5Ac(a2-3)Gal(b1-4)GlcNAc(b1-3)GalNAc
# Procedure, shortened: as §1
# [23] = molecular target: Neu5Ac(a2-3)Gal(b1-4)GlcNAc(b1-3)[Neu5Ac(a2-3)Gal(b1-4)GlcNAc(b1-6)]GalNAc
# Procedure, shortened: as §1
# [24] = molecular target: Neu5Ac(a2-3)Gal(b1-4)GlcNAc(b1-6)GalNAc
# Procedure, shortened: as §1
# [25] = molecular target: Neu5Ac(a2-3)Gal(b1-4)GlcNAc(b1-6)[Gal(b1-3)]GalNAc
# Procedure, shortened: as §1
# [26] = molecular target: Neu5Ac(a2-3)Gal(b1-4)GlcNAc(b1-6)[Neu5Ac(a2-3)Gal(b1-3)]GalNAc
# Procedure, shortened: as §1
# [27] = molecular target: Neu5Ac(a2-3)Gal(b1-4)GlcNAc6S
# Procedure, shortened: as §1
# [28] = molecular target: Neu5Ac(a2-3)Gal(b1-4)[Fuc(a1-3)]GlcNAc
# Procedure, shortened: as §1
# [29] = molecular target: Neu5Ac(a2-3)Gal(b1-4)[Fuc(a1-3)]GlcNAc(b1-2)Man
# Procedure, shortened: as §1
# [30] = molecular target: Neu5Ac(a2-3)Gal(b1-4)[Fuc(a1-3)]GlcNAc(b1-3)Gal
# Procedure, shortened: as §1
# [31] = molecular target: Neu5Ac(a2-3)Gal(b1-4)[Fuc(a1-3)]GlcNAc(b1-3)Gal(b1-4)GlcNAc
# Procedure, shortened: as §1
# [32] = molecular target: Neu5Ac(a2-3)Gal(b1-4)[Fuc(a1-3)]GlcNAc(b1-3)Gal(b1-4)[Fuc(a1-3)]GlcNAc(b1-3)Gal(b1-4)[Fuc(a1-3)]GlcNAc
# Procedure, shortened: as §1
# [33] = molecular target: Neu5Ac(a2-3)Gal(b1-4)[Fuc(a1-3)]GlcNAc(b1-3)GalNAc
# Procedure, shortened: as §1
# [34] = molecular target: Neu5Ac(a2-3)Gal(b1-4)[Fuc(a1-3)]GlcNAc(b1-6)[Gal(b1-3)]GalNAc
# Procedure, shortened: as §1
# [35] = molecular target: Neu5Ac(a2-3)Gal(b1-4)[Fuc(a1-3)]GlcNAc(b1-6)[Neu5Ac(a2-3)Gal(b1-3)]GalNAc
# Procedure, shortened: as §1
# [36] = molecular target: Neu5Ac(a2-3)Gal(b1-4)[Fuc(a1-3)]GlcNAc6S
# Procedure, shortened: as §1
# [37] = molecular target: Neu5Ac(a2-3)Gal6S(b1-4)GlcNAc
# Procedure, shortened: as §1
# [38] = molecular target: Neu5Ac(a2-3)Gal6S(b1-4)[Fuc(a1-3)]GlcNAc
# Procedure, shortened: as §1
binder,measurement,setting,value
"EfCBM33A (Enterococcus faecalis), Q838S1 (protein) MKKSLLTIVLAFSFVLGGAALAPTVSEAHGYVASPGSRAFFGSSAGGNLNTNVGRAQWEPQSIEAPKNTFITGKLASAGVSGFEPLDEQTATRWHKTNITTGPLDITWNLTAQHRTASWDYYITKNGWNPNQPLDIKNFDKIASIDGKQEVPNKVVKQTINIPTDRKGYHVIYAVWGIGDTVNAFYQAIDVNIQ",glycan array binding signal (z-score),[1],1.87
same,glycan array binding signal (z-score),[2],0.557
same,glycan array binding signal (z-score),[3],-0.303
same,glycan array binding signal (z-score),[4],1.51
same,glycan array binding signal (z-score),[5],0.122
same,glycan array binding signal (z-score),[6],-0.066
same,glycan array binding signal (z-score),[7],0.062
same,glycan array binding signal (z-score),[8],-0.155
same,glycan array binding signal (z-score),[9],0.719
same,glycan array binding signal (z-score),[10],0.336
same,glycan array binding signal (z-score),[11],-0.714
same,glycan array binding signal (z-score),[12],-1.09
same,glycan array binding signal (z-score),[13],0.077
same,glycan array binding signal (z-score),[14],-0.177
same,glycan array binding signal (z-score),[15],1.14
same,glycan array binding signal (z-score),[16],-0.666
same,glycan array binding signal (z-score),[17],0.095
same,glycan array binding signal (z-score),[18],1.47
same,glycan array binding signal (z-score),[19],7.32
same,glycan array binding signal (z-score),[20],-0.958
same,glycan array binding signal (z-score),[21],1.81
same,glycan array binding signal (z-score),[22],-0.167
same,glycan array binding signal (z-score),[23],3.14
same,glycan array binding signal (z-score),[24],-0.077
same,glycan array binding signal (z-score),[25],-0.259
same,glycan array binding signal (z-score),[26],-1.34
same,glycan array binding signal (z-score),[27],0.223
same,glycan array binding signal (z-score),[28],-0.648
same,glycan array binding signal (z-score),[29],-0.094
same,glycan array binding signal (z-score),[30],0.027
same,glycan array binding signal (z-score),[31],-0.063
same,glycan array binding signal (z-score),[32],-0.474
same,glycan array binding signal (z-score),[33],2.79
same,glycan array binding signal (z-score),[34],-0.245
same,glycan array binding signal (z-score),[35],-0.871
same,glycan array binding signal (z-score),[36],1.17
same,glycan array binding signal (z-score),[37],-0.289
same,glycan array binding signal (z-score),[38],-0.531

# Random excerpt: three records from the list.
binder,measurement,setting,value
"EfCBM33A (Enterococcus faecalis), Q838S1 (protein) MKKSLLTIVLAFSFVLGGAALAPTVSEAHGYVASPGSRAFFGSSAGGNLNTNVGRAQWEPQSIEAPKNTFITGKLASAGVSGFEPLDEQTATRWHKTNITTGPLDITWNLTAQHRTASWDYYITKNGWNPNQPLDIKNFDKIASIDGKQEVPNKVVKQTINIPTDRKGYHVIYAVWGIGDTVNAFYQAIDVNIQ",glycan array binding signal (z-score),[38],-0.531
same,glycan array binding signal (z-score),[17],0.095
same,glycan array binding signal (z-score),[15],1.14
